Test results reported in the supplement of paper PMC7661543.
The effect of the compound repeats well; differences between the knockouts mostly do not.

Tested on: SKBR3
Assay: relative cell number vs DMSO control (72 h) (% of DMSO); higher = less growth inhibition (more cells)
Protocol: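 QMAP-Seq: a pool of 5 breast cancer cell lines (ZR-75-1, SKBR3, HCC-38, MDA-MB-231, BT-20), each carrying 12 doxycycline-inducible Cas9 sgRNA perturbations (11 knockouts plus non-targeting sgNT), was treated with compounds for 72 h at four 10-fold doses (10 nM-10 uM or 1 nM-1 uM range). Barcodes were amplified and sequenced, and cell number was interpolated from 293T spike-in standard curves. The result is expressed as % of the median of DMSO wells. Two biological replicates.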

CCCS(=O)(=O)Nc1ccc(F)c(C(=O)c2c[nH]c3ncc(Cl)cc23)c1F [PLX4720]
Details | relative cell number
sgRNA knockout: sgATF3, 10 nM | 96.3
sgRNA knockout: sgATF3, 100 nM | 91.1
sgRNA knockout: sgATF3, 1000 nM | 85.9
sgRNA knockout: sgATF3, 10000 nM | 98.7
sgRNA knockout: sgATF4, 10 nM | 96.8
sgRNA knockout: sgATF4, 100 nM | 93
sgRNA knockout: sgATF4, 1000 nM | 107
sgRNA knockout: sgATF4, 10000 nM | 94.6
sgRNA knockout: sgATF6, 10 nM | 94.2
sgRNA knockout: sgATF6, 100 nM | 71.9
sgRNA knockout: sgATF6, 1000 nM | 99.9
sgRNA knockout: sgATF6, 10000 nM | 96
sgRNA knockout: sgATG7, 10 nM | 98.4
sgRNA knockout: sgATG7, 100 nM | 94.6
sgRNA knockout: sgATG7, 1000 nM | 80.1
sgRNA knockout: sgATG7, 10000 nM | 97.7
sgRNA knockout: sgERN1, 10 nM | 95.3
sgRNA knockout: sgERN1, 100 nM | 91
sgRNA knockout: sgERN1, 1000 nM | 93.26
sgRNA knockout: sgERN1, 10000 nM | 101
sgRNA knockout: sgHSF1, 10 nM | 89
sgRNA knockout: sgHSF1, 100 nM | 88.7
sgRNA knockout: sgHSF1, 1000 nM | 88
sgRNA knockout: sgHSF1, 10000 nM | 94.8
sgRNA knockout: sgHSF2, 10 nM | 91.8
sgRNA knockout: sgHSF2, 100 nM | 91.2
sgRNA knockout: sgHSF2, 1000 nM | 98.9
sgRNA knockout: sgHSF2, 10000 nM | 84.6
sgRNA knockout: sgKEAP1, 10 nM | 92.3
sgRNA knockout: sgKEAP1, 100 nM | 84.4
sgRNA knockout: sgKEAP1, 1000 nM | 97.9
sgRNA knockout: sgKEAP1, 10000 nM | 94.9
sgRNA knockout: sgNFE2L2, 10 nM | 90.3
sgRNA knockout: sgNFE2L2, 100 nM | 104
sgRNA knockout: sgNFE2L2, 1000 nM | 91
sgRNA knockout: sgNFE2L2, 10000 nM | 84.5
sgRNA knockout: sgSLC35F2, 10 nM | 111
sgRNA knockout: sgSLC35F2, 100 nM | 87.8
sgRNA knockout: sgSLC35F2, 1000 nM | 105
sgRNA knockout: sgSLC35F2, 10000 nM | 97.9
sgRNA knockout: sgXBP1, 10 nM | 107
sgRNA knockout: sgXBP1, 100 nM | 102
sgRNA knockout: sgXBP1, 1000 nM | 79.9
sgRNA knockout: sgXBP1, 10000 nM | 74.8

CCOC(=O)c1ccc(N2NC(=O)C(=Cc3ccc([N+](=O)[O-])o3)C2=O)cc1 [PYR41]
Details | relative cell number
sgRNA knockout: sgATF3, 10 nM | 104
sgRNA knockout: sgATF3, 100 nM | 79.1
sgRNA knockout: sgATF3, 1000 nM | 104
sgRNA knockout: sgATF3, 10000 nM | 105
sgRNA knockout: sgATF4, 10 nM | 97.013
sgRNA knockout: sgATF4, 100 nM | 89.4
sgRNA knockout: sgATF4, 1000 nM | 117
sgRNA knockout: sgATF4, 10000 nM | 88.1
sgRNA knockout: sgATF6, 10 nM | 98.9
sgRNA knockout: sgATF6, 100 nM | 95.9
sgRNA knockout: sgATF6, 1000 nM | 106
sgRNA knockout: sgATF6, 10000 nM | 90.4
sgRNA knockout: sgATG7, 10 nM | 111
sgRNA knockout: sgATG7, 100 nM | 89.5
sgRNA knockout: sgATG7, 1000 nM | 124
sgRNA knockout: sgATG7, 10000 nM | 97.3
sgRNA knockout: sgERN1, 10 nM | 99.5
sgRNA knockout: sgERN1, 100 nM | 85
sgRNA knockout: sgERN1, 1000 nM | 113
sgRNA knockout: sgERN1, 10000 nM | 106
sgRNA knockout: sgHSF1, 10 nM | 87.6
sgRNA knockout: sgHSF1, 100 nM | 91.8
sgRNA knockout: sgHSF1, 1000 nM | 112
sgRNA knockout: sgHSF1, 10000 nM | 90.55
sgRNA knockout: sgHSF2, 10 nM | 99.2
sgRNA knockout: sgHSF2, 100 nM | 103
sgRNA knockout: sgHSF2, 1000 nM | 110
sgRNA knockout: sgHSF2, 10000 nM | 102
sgRNA knockout: sgKEAP1, 10 nM | 92.6
sgRNA knockout: sgKEAP1, 100 nM | 85.6
sgRNA knockout: sgKEAP1, 1000 nM | 99.6
sgRNA knockout: sgKEAP1, 10000 nM | 101
sgRNA knockout: sgNFE2L2, 10 nM | 105
sgRNA knockout: sgNFE2L2, 100 nM | 74.6
sgRNA knockout: sgNFE2L2, 1000 nM | 87.9
sgRNA knockout: sgNFE2L2, 10000 nM | 86.7
sgRNA knockout: sgSLC35F2, 10 nM | 86
sgRNA knockout: sgSLC35F2, 100 nM | 73.8
sgRNA knockout: sgSLC35F2, 1000 nM | 108
sgRNA knockout: sgSLC35F2, 10000 nM | 88.5
sgRNA knockout: sgXBP1, 10 nM | 106
sgRNA knockout: sgXBP1, 100 nM | 102
sgRNA knockout: sgXBP1, 1000 nM | 140
sgRNA knockout: sgXBP1, 10000 nM | 102

O=C(CCc1ccc(O)cc1)c1c(O)cc(O)cc1O [Phloretin]
Details | relative cell number
sgRNA knockout: sgATF3, 10 nM | 103
sgRNA knockout: sgATF3, 100 nM | 115
sgRNA knockout: sgATF3, 1000 nM | 113
sgRNA knockout: sgATF3, 10000 nM | 109
sgRNA knockout: sgATF4, 10 nM | 93.9
sgRNA knockout: sgATF4, 100 nM | 107
sgRNA knockout: sgATF4, 1000 nM | 86.9
sgRNA knockout: sgATF4, 10000 nM | 94.5
sgRNA knockout: sgATF6, 10 nM | 91.4
sgRNA knockout: sgATF6, 100 nM | 92.1
sgRNA knockout: sgATF6, 1000 nM | 88.2
sgRNA knockout: sgATF6, 10000 nM | 96.9
sgRNA knockout: sgATG7, 10 nM | 75.4
sgRNA knockout: sgATG7, 100 nM | 104
sgRNA knockout: sgATG7, 1000 nM | 98.5
sgRNA knockout: sgATG7, 10000 nM | 100
sgRNA knockout: sgERN1, 10 nM | 90.1
sgRNA knockout: sgERN1, 100 nM | 92.5
sgRNA knockout: sgERN1, 1000 nM | 95.1
sgRNA knockout: sgERN1, 10000 nM | 94.3
sgRNA knockout: sgHSF1, 10 nM | 82.9
sgRNA knockout: sgHSF1, 100 nM | 102
sgRNA knockout: sgHSF1, 1000 nM | 92.1
sgRNA knockout: sgHSF1, 10000 nM | 84.7
sgRNA knockout: sgHSF2, 10 nM | 83.8
sgRNA knockout: sgHSF2, 100 nM | 84.1
sgRNA knockout: sgHSF2, 1000 nM | 80.7
sgRNA knockout: sgHSF2, 10000 nM | 92.8
sgRNA knockout: sgKEAP1, 10 nM | 87.6
sgRNA knockout: sgKEAP1, 100 nM | 93
sgRNA knockout: sgKEAP1, 1000 nM | 89.7
sgRNA knockout: sgKEAP1, 10000 nM | 101
sgRNA knockout: sgNFE2L2, 10 nM | 82.5
sgRNA knockout: sgNFE2L2, 100 nM | 86.5
sgRNA knockout: sgNFE2L2, 1000 nM | 112
sgRNA knockout: sgNFE2L2, 10000 nM | 112
sgRNA knockout: sgSLC35F2, 10 nM | 100
sgRNA knockout: sgSLC35F2, 100 nM | 103
sgRNA knockout: sgSLC35F2, 1000 nM | 82.2
sgRNA knockout: sgSLC35F2, 10000 nM | 103
sgRNA knockout: sgXBP1, 10 nM | 89.5
sgRNA knockout: sgXBP1, 100 nM | 130
sgRNA knockout: sgXBP1, 1000 nM | 93.5
sgRNA knockout: sgXBP1, 10000 nM | 101
